From the supplement of paper PMC10727501
The list shows a part of the results. Repeats in this data set agree poorly, so a single value says little.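 Researchers measured free-swimming zebrafish larvae's O-bend response probability to dark flashes (naive: first five; training: remaining flashes of four 60-flash blocks; test: later 60-flash block) and OMR turning toward alternating leftward/rightward LED motion. Six treated larvae were compared to sixty 0.1% DMSO controls, with |SSMD|≥2 marking a hit.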

tested on: Danio rerio larvae (5 dpf, TLF); assay: Prob-Naive (SSMD vs DMSO vehicle); higher = higher than vehicle (e.g. higher dark-flash O-bend response probability, or better optomotor performance); conditions: 10 µM; pre-incubation: 30-90 min

First: C[C@@H]1C(=O)O[C@H]2CC34[C@H]5C[C@@H](C(C)(C)C)C36[C@@H](OC(=O)[C@H]6O)O[C@@]4(C(=O)O5)[C@]21O (stereo not given in full) [Ginkgolide A]
Second: C=CC[C@@H]1/C=C(\C)C[C@H](C)C[C@H](OC)[C@@H]2O[C@@](O)(C(=O)C(=O)N3CCCC[C@H]3C(=O)O[C@H](/C(C)=C/[C@@H]3CC[C@H](O)[C@H](OC)C3)[C@H](C)[C@@H](O)CC1=O)[C@H](C)C[C@@H]2OC [Tacrolimus (FK506)]
The Prob-Naive of the first is higher: 0.0775 for the first, -0.116 for the second.

Going from `CC1(C)[C@@H](O[C@H]2O[C@H](C(=O)O)[C@@H](O)[C@H](O)[C@@H]2O[C@@H]2O[C@H](C(=O)O)[C@@H](O)[C@H](O)[C@H]2O)CC[C@@]2(C)[C@H]3C(=O)C=C4[C@@H]5C[C@@](C)(C(=O)O)CC[C@]5(C)CC[C@@]4(C)[C@]3(C)CC[C@@H]12.N` [Ammonium Glycyrrhizinate] to `NC[C@H]1O[C@H](O[C@H]2[C@@H](O)[C@@H](O[C@H]3O[C@H](CO)[C@@H](O)[C@H](N)[C@@H]3O)[C@H](N)C[C@@H]2N)[C@@H](N)C[C@@H]1O` [Tobramycin], the Prob-Naive falls from 0.47 to -0.0745.

First: C#C[C@@]1(O)CC[C@H]2[C@@H]3CCc4cc(O)ccc4[C@@H]3CC[C@@]21C [Ethinyl Estradiol]
Second: C[C@@]12CC[C@H]3c4ccc(O)cc4C[C@@H](CCCCCCCCCS(=O)CCCC(F)(F)C(F)(F)F)[C@H]3[C@@H]1CC[C@@H]2O (stereo not given in full) [Fulvestrant]
The Prob-Naive of the first is lower: -1.09 for the first, 0.153 for the second.

Going from `COc1ccc(NS(=O)(=O)c2sc3ccc(Cl)cc3c2C)cc1N1CCNCC1` to `COc1ccc(/C=C/C(=O)Nc2ccccc2C(=O)O)cc1OC` [Tranilast], the Prob-Naive rises from -0.069 to -0.0365.

First: CC(=O)Oc1cccc2c1C(=O)c1c(OC(C)=O)cc(C(=O)O)cc1C2=O [Diacerein]
Second: CC(C(=O)O)c1cccc(C(=O)c2ccccc2)c1 (stereo not given) [Ketoprofen]
The Prob-Naive of the first is lower: -0.119 for the first, -0.0588 for the second.

Compared with `CCC(NC(C)C)C(O)c1ccc(O)c(O)c1.CS(=O)(=O)O` (stereo not given) [Isoetharine Mesylate], `CC(C)N(CCCNC(=O)Nc1ccc(C(C)(C)C)cc1)C[C@H]1O[C@@H](n2ccc3c(N)ncnc32)[C@H](O)[C@@H]1O` is higher in Prob-Naive: -0.381 for the first, 0.245 for the second.

Compared with `CC(C)(C#N)c1ccc(N2C(=O)OCc3cnc4ccc(-c5cnc6ccccc6c5)cc4c32)cc1`, `COc1ccc(-c2cc(=O)c3c(OC)c(OC)c(OC)c(OC)c3o2)cc1` [Tangeretin] is lower in Prob-Naive: -0.102 for the first, -5.05 for the second.

First: O=C1CCC(N2C(=O)c3ccccc3C2=O)C(=O)N1 (stereo not given) [Thalidomide]
Second: NC1(Cc2ccc(Cl)cc2)CCN(c2ncnc3[nH]ccc23)CC1
The Prob-Naive of the first is lower: -0.123 for the first, 0.102 for the second.

Going from `[O-][n+]1cccc(CO)c1` [Mepiroxol] to `CN(C)CCN(Cc1ccccc1)c1ccccn1.Cl` [Tripelennamine HCl], the Prob-Naive rises from 0.153 to 0.389.

Compared with `C[C@H](CS)C(=O)N1CCC[C@@H]1C(=O)O` [Captopril], `CCCCCCCCCC(=O)N[C@@H](Cc1c[nH]c2ccccc12)C(=O)N[C@H](CC(N)=O)C(=O)N[C@@H](CC(=O)O)C(=O)N[C@@H]1C(=O)NCC(=O)N[C@H](CCCN)C(=O)N[C@@H](CC(=O)O)C(=O)N[C@@H](C)C(=O)N[C@@H](CC(=O)O)C(=O)NCC(=O)N[C@H](CO)C(=O)N[C@@H]([C@@H](C)CC(=O)O)C(=O)N[C@@H](CC(=O)c2ccccc2N)C(=O)O[C@@H]1C` [Daptomycin] is higher in Prob-Naive: -0.423 for the first, -0.202 for the second.
